The campaign covered roughly 390,000 compounds. About 4,000 (1%) were called active. Inconclusive results, whose numbers are uncertain, are shown with a selection of clear calls. The call rests on the fitted dose curve; in most records, active means well fitted inhibition curve with a large enough effect; inconclusive means small, poorly fitted or top-dose-only effect, or another doubt; inactive means no such curve, though single readings can be large or run the other way. Where the call is inconclusive, the potency comes from a doubtful curve fit.
Each compound was assayed against DNA polymerase iota (Homo sapiens) (UniProt Q9UNA4) (assay: qHTS for Inhibitors of Polymerase Iota). Conditions: Pol iota fluorescent replication assay, 10 min; series mostly up to 115 µM.
Procedure, shortened: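 Fluorescent replication assay read twice, at 0 min and 10 min after adding 50 nM (final) substrate. Enzyme (10 nM) and compounds were first incubated 15 min at room temperature; enzyme-free buffer wells were negative controls.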
Potency means the concentration at half of the fitted maximal effect.

The chains behind the UniProt entries cited, without tags or fusion partners. Where a name states a change or a piece, a line headed by the entry shows the natural chain unless it says otherwise.
UniProt Q9UNA4: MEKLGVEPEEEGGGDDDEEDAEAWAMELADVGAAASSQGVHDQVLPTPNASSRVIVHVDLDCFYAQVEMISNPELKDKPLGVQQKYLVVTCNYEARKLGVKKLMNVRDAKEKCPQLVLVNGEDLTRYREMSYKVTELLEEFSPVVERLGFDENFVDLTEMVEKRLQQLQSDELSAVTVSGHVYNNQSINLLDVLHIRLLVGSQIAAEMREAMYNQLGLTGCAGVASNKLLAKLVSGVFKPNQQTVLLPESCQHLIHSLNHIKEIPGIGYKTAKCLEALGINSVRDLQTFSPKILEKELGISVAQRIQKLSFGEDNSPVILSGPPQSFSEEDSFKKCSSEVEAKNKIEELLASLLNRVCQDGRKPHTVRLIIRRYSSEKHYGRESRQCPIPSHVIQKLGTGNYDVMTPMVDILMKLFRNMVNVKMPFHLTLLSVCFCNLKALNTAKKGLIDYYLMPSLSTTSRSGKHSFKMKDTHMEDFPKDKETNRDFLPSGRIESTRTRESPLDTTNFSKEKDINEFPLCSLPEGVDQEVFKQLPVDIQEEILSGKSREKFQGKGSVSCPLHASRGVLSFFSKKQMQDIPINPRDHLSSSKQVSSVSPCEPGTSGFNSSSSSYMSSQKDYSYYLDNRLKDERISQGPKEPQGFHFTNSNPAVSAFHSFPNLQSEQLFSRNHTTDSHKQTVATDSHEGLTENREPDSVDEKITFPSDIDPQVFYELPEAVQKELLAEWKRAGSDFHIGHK

Potency, inconclusive:
O=C(NCc1cccc(C(F)(F)F)c1)c1cc(-c2ccccc2)nn1CC1CC(c2cccnc2)=NO1 (centres undefined) 5.62 µM [inhibitor, full curve, poor fit], O=C(Nc1ccc(Cl)cc1)N(Cc1cccs1)Cc1cccs1 31.6 µM [inhibitor, single point], O=C1CNC(=S)N1CCc1ccc(O)c(O)c1 50.1 µM [inhibitor, single point], C#CC(=O)N(c1ccc(OC)cc1OC)C(C(=O)NC1CCCC1)c1cccs1 (centres undefined) 2.51 µM [inhibitor, partial curve, poor fit], CN1CCN(C(c2ccc(F)cc2)c2nnnn2Cc2cccs2)CC1 (centres undefined) 35.5 µM [inhibitor, partial curve, poor fit], Cc1ccc(CNC(=O)CCCNS(=O)(=O)c2cccc3nonc23)cc1 25.1 µM [inhibitor, partial curve, poor fit], Cc1ccc(-c2nc(=S)c3c(n2CCN2CCOCC2)CC(C)(C)OC3)cc1 25.1 µM [inhibitor, single point], Cc1cccc2nc(CSCc3ccco3)cn12 17.8 µM [inhibitor, full curve, poor fit], Cc1cccc(-c2nc3c(cnn3-c3ccccc3)c(=O)n2-c2ccc(Cl)cc2)c1 11.2 µM [inhibitor, full curve, poor fit], Cn1cc(S(=O)(=O)CC(=O)Nc2ccc3c(c2)OCO3)c2ccccc21 22.4 µM [inhibitor, partial curve, poor fit], O=C(c1ccccc1)N1CCN(S(=O)(=O)c2cccs2)CC1 89.1 µM [inhibitor, single point], CCOC(=O)Cn1c(C)cc(COC)c(C#N)c1=O 5.01 µM [inhibitor, full curve, poor fit], NS(=O)(=O)c1ccc(NC(=O)NC2CC(=O)N(c3ccc4c(c3)OCCO4)C2)cc1 (centres undefined) 89.1 µM [inhibitor, single point], CCCOC(=O)c1cc(-c2ccc(/C=C3/C(=O)N(C)C(=O)C(C#N)=C3C)o2)ccc1Cl 20 µM [inhibitor, partial curve, poor fit], CCc1ccc(N(CC)C(=O)c2ccc3c(Cl)c4c(nc3c2)CCC4)cc1 35.5 µM [inhibitor, partial curve, poor fit], CC(=O)c1ccc2c(c1)OCCOCCOc1ccccc1OCCOCCO2 70.8 µM [inhibitor, single point], CCOC(=O)C1CCN(c2ncnc3c2[nH]c2cccc(OC)c23)CC1 3.16 µM [inhibitor, full curve, poor fit], COC1=CC(=O)C=C(OC)C1=O 17.8 µM [inhibitor, partial curve, poor fit], Cc1cc(C(=O)OCC(=O)N2C(C)CCCC2C)c2ccccc2n1 (centres undefined) 79.4 µM [inhibitor, partial curve, poor fit], O=C(Nc1cccc(S(=O)(=O)N2CCOCC2)c1)c1cc(S(=O)(=O)N2CCOCC2)c(Cl)cc1Cl 89.1 µM [inhibitor, single point], Cc1cc(C)c2nc(-c3ccccn3)cc(C(=O)Nc3ccc(S(=O)(=O)Nc4cc(C)on4)cc3)c2c1 11.2 µM [inhibitor, partial curve, poor fit], CC1CN(CC(=O)Nc2ccc(Br)cn2)CC(C)O1 (centres undefined) 50.1 µM [inhibitor, partial curve, poor fit], O=C(Cc1ccccc1[N+](=O)[O-])NNC(=O)c1ccncc1 28.2 µM [inhibitor, full curve, poor fit], Oc1cc2c(cc1C(c1ccc(Br)cc1)N1CCCC1)OCO2 (centres undefined) 17.8 µM [inhibitor, single point], O=C(COC(=O)C12CC3CC(CC(Cl)(C3)C1)C2)N1CCCCC1 89.1 µM [inhibitor, single point], Cc1cccc(NC(=O)C2CCCN2S(=O)(=O)c2ccc3c(c2)n(C)c(=O)c(=O)n3C)c1 (centres undefined) 89.1 µM [inhibitor, single point], CCCC1=Nc2cc(C(=O)N3CCC(C(=O)OCC)CC3)ccc2Sc2ccccc21 89.1 µM [inhibitor, single point], CCN(CC)CCCNc1nc2ccccc2c2nc(-c3ccncc3)nn12 20 µM [inhibitor, partial curve, poor fit], COc1ccc(CN2CCN(C(c3ccc(F)cc3)c3ccc(F)cc3)CC2)c(OC)c1OC 3.98 µM [inhibitor, full curve, poor fit], Cc1nnc2sc(COc3ccccc3)nn2c1=O 79.4 µM [inhibitor, partial curve, poor fit], CCN1C(=O)C(O)(c2c[nH]c3ccccc23)c2cc(Br)ccc21 (centres undefined) 7.94 µM [inhibitor, partial curve, poor fit], O=S(=O)(Nc1ncnc2sc3c(c12)CCC3)c1ccc(Cl)s1 56.2 µM [inhibitor, partial curve, poor fit], O=[N+]([O-])c1cc2c(cc1C=Nc1ccccc1)OCO2 7.08 µM [inhibitor, partial curve], COc1ccc(N2C(=O)C3CC=C(Cl)CC3C2=O)cc1 (centres undefined) 100 µM [inhibitor, partial curve, poor fit], CC1=C(C(=O)OCc2ccccc2)C(c2ccccc2OS(=O)(=O)c2ccccc2[N+](=O)[O-])NC(=O)N1CCCC(=O)O (centres undefined) 22.4 µM [inhibitor, partial curve, poor fit], Cc1ccc(Cl)cc1NC(=O)c1ocnc1C 31.6 µM [inhibitor, full curve], COc1cccc(CNC(=O)C2CCN(S(=O)(=O)c3cccs3)CC2)c1 100 µM [inhibitor, partial curve, poor fit], COc1ccc(N2Cc3cccc(C(=O)O)c3C2=O)cc1 22.4 µM [inhibitor, single point], COCC(=O)Nc1cc(C)c2c(=O)oc3ccccc3c2n1 17.8 µM [inhibitor, full curve, poor fit], COc1ccc(C2C(C(N)=O)=C(C)Nc3nc(-c4ccccc4OC)nn32)cc1OC (centres undefined) 50.1 µM [inhibitor, partial curve], CC(C)OC(=O)CSc1nnc(SCc2cccc3ccccc23)s1 8.91 µM [inhibitor, single point], Cc1sc2nc(CN(C(=O)NC3CCCCC3)C3CCCCC3)[nH]c(=O)c2c1C 56.2 µM [inhibitor, partial curve, poor fit], CCOc1ccccc1-c1noc(CSc2nnc(-c3ccccc3)n2-c2ccc(OC)cc2)n1 89.1 µM [inhibitor, single point], COc1ccc(-n2c(SCC(=O)Nc3nccs3)nc3sc4c(c3c2=O)CCN(C)C4)cc1 39.8 µM [inhibitor, single point], CCN(CC)S(=O)(=O)c1ccc(C(=O)NCC2(N3CCOCC3)CCCCC2)cc1 79.4 µM [inhibitor, single point], CCOC(=O)C1(CC)NC(c2ccco2)C2C(=O)N(c3ccc(C)cc3)C(=O)C21 (centres undefined) 3.55 µM [inhibitor, single point], O=C(CSc1ccc(-c2ccco2)nn1)Nc1ccc(F)cc1 28.2 µM [inhibitor, partial curve, poor fit]

Potency, inactive:
CCc1ccc(C(=O)CC2(O)C(=O)N(CCc3ccccc3)c3ccc(Cl)cc32)cc1 (centres undefined), Cc1ccc(-c2cc(C(=O)Nc3ccncc3)c3ccccc3n2)cc1, CCOc1ccc(NC(=O)c2c(C)oc3nc(C)nc(N4CCOCC4)c23)cc1, O=C(Nc1ccc(NC(=O)c2ccco2)cc1)c1ccc2c(c1)OCO2, O=C(c1ccccc1)N1CCc2cc(CNS(=O)(=O)c3ccc(Cl)s3)ccc21, Cn1nnnc1SCC(=O)N1N=C(c2ccc(Cl)cc2)CC1c1ccco1 (centres undefined), N/C(=N\OS(=O)(=O)c1ccc2ccccc2c1)c1ccncc1, CN(C)c1ccc(/C=C2\C=Cc3ccccc32)cc1[N+](=O)[O-], CCN=c1scc(-c2ccco2)n1/N=C/c1ccc(O)cc1, COCCSc1ccccc1C(=O)Nc1nccs1, COCc1cc(C)nc(SCC(=O)Oc2ccccc2)c1C#N, O=C(Nc1ccccc1C(F)(F)F)N1CCOc2ccc(Cl)cc21, CCC(/C=C1\Sc2ccc(OC)cc2N1CC)=C\c1sc2ccc(OC)cc2[n+]1CCCS(=O)(=O)[O-], O=C(c1ccc2c(c1)OCO2)N1CCC(Cc2ccccc2)CC1, COC(=O)c1cc(C#N)c(OC)nc1C, Cc1ccc(S(=O)(=O)CCC(=O)OCC(=O)NCC(=O)Nc2c(C)cc(C)cc2C)cc1, COc1cc(C2Nc3ccc4ncccc4c3C3=C2C(=O)CCC3)cc(OC)c1O (centres undefined)

— PubChem BioAssay AID588590 (National Center for Advancing Translational Sciences (NCATS), 2011)
